PubChem BioAssay AID652243 | Drosophila RNAi Screening Center – 2013
Screen: 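Fly genes required for human androgen receptor driven transcription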 (primary screen). Cells: Drosophila S2R+ cells. Knock-down reagent: long dsRNA against Drosophila genes. Timing: 72 h (48 h, then 24 h hormone). Conditions: synthetic androgen R1881 at 10 nM for 24 h. Measurement: 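Per-well raw luminescence of the androgen-driven firefly reporter and of the Renilla control, two replicates each, without normalisation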. Direction: firefly reporter light: higher = more light from androgen-responsive reporter; Renilla control light: higher = more constitutive control signal (cell number, transfection). Active means: 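Hit when the log firefly-to-Renilla ratio dropped or increased by a fixed fold versus the mean of GFP or LacZ controls across duplicate plates; lowering cut given as 1.5 and as 3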. Meaning of the calls: active = hit: reporter lowered or raised; inactive = no hit.
The screen tested about 24,000 reagents; this is a random part of those that have a named target and a result. In the full data, 246 (1%) are marked active. 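Plates not normalised; calls are printed but the firefly/Renilla ratio behind them is not deposited; fold cut for lowering reported inconsistently.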 The raw values are shown without normalisation. A plus sign joins genes that one reagent is predicted to hit. Not stated in the record: the amount of reagent.

The opening 5 records, to show the layout:
predicted target,DRSC id,"firefly reporter light, replicate 1","firefly reporter light, replicate 2","Renilla control light, replicate 1","Renilla control light, replicate 2",Outcome
CG7131,DRSC16203,58657,74052,8.57e5,6.55e5,inactive
CG7131,DRSC29880,3.79e5,3.67e5,1.19e6,9.95e5,inactive
CG11911,DRSC00331,7.51e5,1.00e6,1.85e6,1.38e6,inactive
CG11911,DRSC27293,3.90e5,4.19e5,3.07e5,4.15e5,inactive
"Arpc1 (Actin-related protein 2/3 complex, subunit 1)",DRSC03438,1.30e6,9.66e5,2.21e6,1.37e6,inactive

Results, from the start:
predicted target,DRSC id,"firefly reporter light, replicate 1","firefly reporter light, replicate 2","Renilla control light, replicate 1","Renilla control light, replicate 2",Outcome
CG7131,DRSC16203,58657,74052,8.57e5,6.55e5,inactive
CG7131,DRSC29880,3.79e5,3.67e5,1.19e6,9.95e5,inactive
CG11911,DRSC00331,7.51e5,1.00e6,1.85e6,1.38e6,inactive
CG11911,DRSC27293,3.90e5,4.19e5,3.07e5,4.15e5,inactive
"Arpc1 (Actin-related protein 2/3 complex, subunit 1)",DRSC03438,1.30e6,9.66e5,2.21e6,1.37e6,inactive
"Arpc1 (Actin-related protein 2/3 complex, subunit 1)",DRSC29641,5.13e5,4.36e5,9.31e5,9.31e5,inactive
CG14130,DRSC10134,1.94e5,1.49e5,2.43e6,2.23e6,inactive
CG12769,DRSC25056,9.77e5,8.19e5,1.27e6,1.32e6,inactive
CG1092,DRSC12151,30990,51767,3.34e5,4.81e5,inactive
CG1092,DRSC24479,9.21e5,1.08e6,1.07e6,1.15e6,inactive
CG4880,DRSC19923,89024,73296,6.23e5,7.88e5,inactive
Karl,DRSC19883,61047,49935,5.61e5,4.75e5,inactive
Porin2,DRSC02584,2.49e5,2.54e5,1.09e6,1.78e6,inactive
Tango2 (Transport and Golgi organization 2),DRSC19394,90957,1.05e5,5.78e5,7.97e5,inactive
Tango2 (Transport and Golgi organization 2),DRSC21526,6.87e5,7.98e5,1.61e6,1.46e6,inactive
lab (labial),DRSC12627,81380,94069,1.53e6,1.76e6,inactive
lab (labial),DRSC25048,8.63e5,6.61e5,5.52e5,5.90e5,inactive
TfIIFalpha (Transcription factor IIFalpha),DRSC12608,91084,1.37e5,3.36e5,3.80e5,inactive
TfIIFalpha (Transcription factor IIFalpha),DRSC26379,6.63e5,4.65e5,1.26e6,8.02e5,inactive
TfIIFalpha (Transcription factor IIFalpha),DRSC38961,8.79e5,8.51e5,1.55e6,1.22e6,inactive
CG9427,DRSC16490,77590,1.19e5,8.91e5,1.06e6,inactive
CG9427,DRSC28856,5.04e5,3.79e5,1.56e6,1.06e6,inactive
CG13247,DRSC11695,2.78e5,2.54e5,3.06e6,1.87e6,inactive
O-fut2 (O-fucosyltransferase 2),DRSC18608,69308,61967,7.04e5,3.81e5,inactive
CG16989,DRSC18535,1.57e5,2.14e5,2.98e6,2.86e6,inactive
CG16989,DRSC29403,5.95e5,7.86e5,1.07e6,1.07e6,inactive
CG43333,DRSC23265,7.07e5,8.69e5,8.37e5,9.58e5,inactive
CG43333,DRSC27202,3.21e5,2.61e5,6.28e5,4.92e5,inactive
cm + Inx7,DRSC18753,1.07e5,92189,6.83e5,4.85e5,inactive
CG10663,DRSC09770,2.54e5,1.70e5,2.28e6,9.58e5,inactive
tau,DRSC23046,7.99e5,9.31e5,8.53e5,9.15e5,inactive
CG3168,DRSC18287,60888,69531,7.15e5,4.64e5,inactive
CG3168,DRSC25481,5.85e5,6.07e5,5.15e5,6.30e5,inactive
CG5880,DRSC15906,74318,70659,7.56e5,6.61e5,inactive
CG10359,DRSC08156,1.12e6,7.05e5,1.38e6,1.25e6,inactive
CCAP-R (Crustacean cardioactive peptide receptor),DRSC14891,1.74e5,1.98e5,2.27e6,2.55e6,inactive
CCAP-R (Crustacean cardioactive peptide receptor),DRSC15967,1.19e5,2.09e5,1.73e6,2.13e6,inactive
CCAP-R (Crustacean cardioactive peptide receptor),DRSC29494,1.08e6,8.60e5,1.38e6,1.38e6,inactive
Send2 (Spermathecal endopeptidase 2),DRSC01906,2.27e5,2.59e5,2.57e6,2.42e6,inactive
CG32564,DRSC19933,4.05e5,4.89e5,3.22e6,2.69e6,inactive
CG32564,DRSC25202,7.28e5,1.04e6,7.75e5,8.58e5,inactive
pHCl-1 (pH-sensitive chloride channel 1),DRSC09888,1.33e5,1.33e5,1.69e6,1.48e6,inactive
pHCl-1 (pH-sensitive chloride channel 1),DRSC09991,93639,77597,1.44e6,1.79e6,inactive
pHCl-1 (pH-sensitive chloride channel 1),DRSC10589,3.49e5,3.50e5,2.65e6,1.80e6,inactive
pHCl-1 (pH-sensitive chloride channel 1),DRSC29802,4.33e5,4.70e5,1.36e6,1.91e6,inactive
"E(spl)mbeta-HLH (Enhancer of split mbeta, helix-loop-helix)",DRSC16697,1.49e5,70071,7.86e5,5.77e5,inactive
CG14180 (retired record),DRSC10179,37543,32305,6.06e5,5.23e5,inactive
CG14180 (retired record),DRSC25107,1.04e6,9.64e5,6.37e5,7.10e5,inactive
CG43292,DRSC21542,5.71e5,4.89e5,2.26e6,2.09e6,inactive
CG34429,DRSC10120,2.17e5,1.58e5,2.18e6,2.27e6,inactive
CG2930,DRSC17730,1.24e5,1.02e5,8.88e5,6.20e5,inactive
CG2930,DRSC26303,3.60e5,3.65e5,7.79e5,7.19e5,inactive
CG30076,DRSC05494,92665,1.41e5,1.80e5,3.23e5,inactive
CG30076,DRSC28026,7.24e5,5.29e5,1.83e6,9.83e5,inactive
Stacl (Stac-like),DRSC05553,20330,12181,48762,96564,inactive
Stacl (Stac-like),DRSC06260,82335,1.23e5,2.13e6,2.13e6,inactive
Stacl (Stac-like),DRSC06261,83786,79875,1.64e6,1.64e6,inactive
Stacl (Stac-like),DRSC06777,43861,1.21e5,1.17e6,1.17e6,inactive
Stacl (Stac-like),DRSC23019,7.74e5,9.15e5,1.57e6,2.02e6,inactive
Stacl (Stac-like),DRSC23183,2.33e5,1.89e5,8.88e5,8.51e5,inactive
Stacl (Stac-like),DRSC25838,2.96e5,3.20e5,1.00e6,9.14e5,inactive
Stacl (Stac-like),DRSC36864,,,,,inactive
Stacl (Stac-like),DRSC36865,,,,,inactive
CG34425,DRSC12210,93623,67946,2.92e6,1.82e6,inactive
CG34425,DRSC22315,6.30e5,6.35e5,1.63e6,2.19e6,inactive
Sqor (Sulfide quinone oxidoreductase),DRSC08453,6.22e5,2.29e5,1.14e6,8.11e5,inactive
Sqor (Sulfide quinone oxidoreductase),DRSC27056,5.17e5,3.05e5,7.38e5,3.45e5,inactive
Muc11A (Mucin 11A),DRSC19498,3.50e5,4.05e5,2.19e6,2.09e6,inactive
Muc11A (Mucin 11A),DRSC29295,5.98e5,5.78e5,1.11e6,1.11e6,inactive
eIF3d1 (eukaryotic translation initiation factor 3 subunit d1),DRSC16938,1.71e5,2.66e5,1.56e6,1.70e6,inactive
CG14259,DRSC14754,1.37e5,1.97e5,1.73e6,1.99e6,inactive
CG6980,DRSC16162,1.63e5,1.23e5,6.69e5,5.98e5,inactive
CG6980,DRSC29355,9.33e5,1.00e6,1.15e6,1.15e6,inactive
CG10353,DRSC19354,3.30e5,4.31e5,3.21e6,3.14e6,inactive
CG10353,DRSC29888,5.22e5,4.49e5,1.05e6,1.04e6,inactive
